Laboratory results taken from the supplement of paper PMC8732350.
Several values for one entry are separate records, joined by “and”; a condition that tells them apart may be missing. Equal values may be shown once. Where a name gives a salt, the structure may show the parent alone. ± gives the standard deviation of the averaged measurements. The list shows a part of the results. Repeats in this data set agree poorly, so a single value says little.

Test system: A549
Test: surface PD-L1 immunofluorescence intensity relative to IFN-gamma-only control (ratio); higher = more PD-L1 expression
Conditions: 10 µM; exposure time 24 h; IFN-gamma 100 ng/mL

SMILES	surface PD-L1 immunofluorescence intensity
CCOC(=O)C1=C(C)NC(C)=C(C(=O)OCC)C1c1ccccc1/C=C/C(=O)OC(C)(C)C [Lacidipine]	0.902
O=C(O)C(Cc1c[nH]c2ccccc12)N1C(=O)c2ccccc2C1=O (configuration not stated)	1.01
CCOc1cc(CC(=O)N[C@@H](CC(C)C)c2ccccc2N2CCCCC2)ccc1C(=O)O [Repaglinide]	0.996 ± 0.012
CCCCN(CCCC)CCC(O)c1cc2c(Cl)cc(Cl)cc2c2cc(C(F)(F)F)ccc12 (configuration not stated) [Halofantrine hydrochloride]	1.09
C#C[C@]1(O)CC[C@H]2[C@@H]3CCc4cc(O)ccc4[C@H]3CC[C@@]21C [Ethinylestradiol]	1.12
C#C[C@]1(O)CC[C@H]2[C@@H]3CCc4cc(O)ccc4[C@H]3CC[C@@]21C [Ethinyl Estradiol]	1.2
C[C@H](NC[C@H](O)CP(=O)(O)CC1CCCCC1)c1ccc(Cl)c(Cl)c1	0.995
Nc1nc2c(ncn2COCCO)c(=O)[nH]1 [Acyclovir]	0.884
CCCCCN(CCCCC)C(=O)C(CCC(=O)O)NC(=O)c1ccc(Cl)c(Cl)c1 (configuration not stated) [Lorglumide sodium salt]	0.993
CC(C)NCC(O)c1ccc(O)c(O)c1 (configuration not stated) [Isoproterenol hydrochloride]	1.01
CS(=O)(=O)N1CCN(Cc2cc3nc(-c4cccc5[nH]ncc45)nc(N4CCOCC4)c3s2)CC1 [Pictilisib (GDC-0941)]	0.939
CC(C)(C)NC(=O)[C@@H]1C[C@@H]2CCCC[C@@H]2CN1C[C@@H](O)[C@H](Cc1ccccc1)NC(=O)[C@H](CC(N)=O)NC(=O)c1ccc2ccccc2n1 [Saquinavir mesylate]	1.01
COc1ccc2[nH]c([S@@+]([O-])Cc3ncc(C)c(OC)c3C)nc2c1 [Esomeprazole magnesium (Nexium)]	1.07
c1ccc(C(O[C@@H]2CCCN(CCc3ccc4c(c3)OCO4)C2)c2ccccc2)cc1 [Zamifenacin fumarate]	1.11
CC(=O)OCC(=O)[C@@]1(O)[C@H](C)C[C@H]2[C@@H]3CCC4=CC(=O)C=C[C@]4(C)[C@@]3(F)[C@@H](O)C[C@@]21C [Dexamethasone acetate]	0.766 ± 0.033
COc1ncnc(NS(=O)(=O)c2ccc(N)cc2)c1OC [Sulfadoxine]	0.968
CC1(C)CCC[C@]2(C)[C@H]3CC(=O)O[C@]3(C)CC[C@@H]12 [Sclareolide (Norambreinolide)]	0.918
COc1c(N2C[C@@H]3CCCN[C@@H]3C2)c(F)cc2c(=O)c(C(=O)O)cn(C3CC3)c12 [Moxifloxacin]	1.09
COc1ccc(C(=O)c2ccccc2)c(O)c1 [Oxybenzone]	1.08
Cc1ccccc1C(=O)c1ccc(Nc2ccc(Br)cc2N)cc1Cl	0.984
COc1ccc(C(=O)CC(=O)c2ccc(C(C)(C)C)cc2)cc1 [Avobenzone (Parsol 1789)]	1.11
COc1cc(C(C)=O)ccc1OCCCN1CCC(c2noc3cc(F)ccc23)CC1 [Iloperidone (Fanapt)]	1.05
CCOC(=O)[C@H](CCc1ccccc1)N[C@H]1CCCN2CCC[C@@H](C(=O)O)N2C1=O [Cilazapril monohydrate (Inhibace)]	1.13
CCCC1O[C@@H]2C[C@H]3[C@@H]4CCC5=CC(=O)C=C[C@]5(C)[C@H]4[C@@H](O)C[C@]3(C)[C@]2(C(=O)CO)O1 (some centres not stated) [Budesonide]	0.888 ± 0.017

Twelve entries from above, with bars between the fields.
SMILES | surface PD-L1 immunofluorescence intensity
O=C(O)C(Cc1c[nH]c2ccccc12)N1C(=O)c2ccccc2C1=O (configuration not stated) | 1.01
CCOc1cc(CC(=O)N[C@@H](CC(C)C)c2ccccc2N2CCCCC2)ccc1C(=O)O [Repaglinide] | 0.996 ± 0.012
CCCCN(CCCC)CCC(O)c1cc2c(Cl)cc(Cl)cc2c2cc(C(F)(F)F)ccc12 (configuration not stated) [Halofantrine hydrochloride] | 1.09
C#C[C@]1(O)CC[C@H]2[C@@H]3CCc4cc(O)ccc4[C@H]3CC[C@@]21C [Ethinylestradiol] | 1.12
C#C[C@]1(O)CC[C@H]2[C@@H]3CCc4cc(O)ccc4[C@H]3CC[C@@]21C [Ethinyl Estradiol] | 1.2
C[C@H](NC[C@H](O)CP(=O)(O)CC1CCCCC1)c1ccc(Cl)c(Cl)c1 | 0.995
Nc1nc2c(ncn2COCCO)c(=O)[nH]1 [Acyclovir] | 0.884
CCCCCN(CCCCC)C(=O)C(CCC(=O)O)NC(=O)c1ccc(Cl)c(Cl)c1 (configuration not stated) [Lorglumide sodium salt] | 0.993
CC(C)NCC(O)c1ccc(O)c(O)c1 (configuration not stated) [Isoproterenol hydrochloride] | 1.01
CS(=O)(=O)N1CCN(Cc2cc3nc(-c4cccc5[nH]ncc45)nc(N4CCOCC4)c3s2)CC1 [Pictilisib (GDC-0941)] | 0.939
CC(C)(C)NC(=O)[C@@H]1C[C@@H]2CCCC[C@@H]2CN1C[C@@H](O)[C@H](Cc1ccccc1)NC(=O)[C@H](CC(N)=O)NC(=O)c1ccc2ccccc2n1 [Saquinavir mesylate] | 1.01
COc1ccc2[nH]c([S@@+]([O-])Cc3ncc(C)c(OC)c3C)nc2c1 [Esomeprazole magnesium (Nexium)] | 1.07

Remaining list, next part:

SMILES	surface PD-L1 immunofluorescence intensity
COC(=O)c1c(C)[nH]c(C)c1C(=O)c1ccccc1Cc1ccccc1	1 and 0.981
CC(C)n1nnc2cc(C(=O)O)ccc21	1.08
CC(C(=O)O)c1cccc(C(=O)c2ccccc2)c1 (configuration not stated) [Ketoprofen]	0.99
CC(C1=C(CCN(C)C)Cc2ccccc21)c1ccccn1 (stereo in doubt) [(S)-(+)-Dimethindene maleate]	0.982
CC1=C(C(=O)Nc2cc3cn[nH]c3cc2F)C(c2ccc(C(F)(F)F)cc2)CC(=O)N1 (configuration not stated)	0.986 ± 0.12
NCC(O)(CS(=O)(=O)O)c1ccc(Cl)cc1 (configuration not stated) [2-Hydroxysaclofen]	1.04
CC[C@H](NC(=O)c1c(C)c(-c2ccccc2)nc2ccccc12)c1ccccc1	1.01
CCOC(=O)c1ncn2c1CN(C)C(=O)c1cc(F)ccc1-2 [Flumazenil]	1.03
Cc1cc(C)c2c(c1)[C@@H](N(Cc1cc(C(F)(F)F)cc(C(F)(F)F)c1)c1nnn(C)n1)CCCN2C[C@H]1CC[C@H](C(=O)O)CC1	0.977
CC1=C(/C=C/C(C)=C/C=C/C(C)=C/C=C/C=C(C)/C=C/C=C(C)/C=C/C2=C(C)C(=O)CCC2(C)C)C(C)(C)CCC1=O [Canthaxanthin]	0.918
C[C@H](N)[C@H](O)c1cccc(O)c1 [Metaraminol bitartrate]	0.909
NC(=O)N1C(=O)/C(=C(\O)c2cccs2)c2cc(Cl)ccc21 [Tenidap]	1.14
CCN(CC)CCOC(=O)C(Cc1cccc2ccccc12)CC1CCCO1 (configuration not stated) [Nafronyl oxalate]	0.928
CC1(C)S[C@@H]2[C@H](NC(=O)C(C(=O)O)c3ccccc3)C(=O)N2[C@H]1C(=O)O (some centres not stated) [Carbenicillin disodium]	0.897
CC(C)=CCC/C(C)=C/CC/C(C)=C/CO [Farnesol]	1.01
Cc1nc2sccn2c(=O)c1CCN1CCC(=C(c2ccccc2)c2ccc(F)cc2)CC1	0.995
Cc1ccccc1OCC(O)CO (configuration not stated) [Mephenesin]	1
S=c1ccss1 [1,2-Dithiole-3-thione]	0.988
CS(=O)(=O)c1ccc(-c2cc(Br)sc2-c2ccc(F)cc2)cc1	1.09
O=C1CN(/N=C/c2ccc([N+](=O)[O-])o2)C(=O)N1 [Nitrofurantoin]	0.903
CC1(C)S[C@@H]2[C@H](NC(=O)[C@H](C(=O)O)c3ccsc3)C(=O)N2[C@H]1C(=O)O [Ticarcillin sodium]	1.03
CN[C@@H]1[C@@H](O)[C@@H](O[C@@H]2[C@@H](O)[C@H](O[C@H]3OC(CN)=CC[C@H]3N)[C@@H](N)C[C@H]2N)OC[C@]1(C)O [Sisomicin sulfate]	1.04
Cc1cc(NS(=O)(=O)c2ccc(N)cc2)no1 [Sulfamethoxazole]	1.01
